According to the supplement of paper PMC10849652:
This is one part of the list.

Protein sequences, listed by entry. Tags and fused reporters are not part of them. Lines headed by an entry give the natural chain unless they say otherwise; changes in a name come on top.
UniProt Q8IXQ3: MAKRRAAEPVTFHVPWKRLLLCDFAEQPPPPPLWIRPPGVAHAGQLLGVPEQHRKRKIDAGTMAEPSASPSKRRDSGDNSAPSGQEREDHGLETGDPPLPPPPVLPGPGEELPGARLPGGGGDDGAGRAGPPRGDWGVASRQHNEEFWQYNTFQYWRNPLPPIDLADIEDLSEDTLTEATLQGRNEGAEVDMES
UniProt Q13901: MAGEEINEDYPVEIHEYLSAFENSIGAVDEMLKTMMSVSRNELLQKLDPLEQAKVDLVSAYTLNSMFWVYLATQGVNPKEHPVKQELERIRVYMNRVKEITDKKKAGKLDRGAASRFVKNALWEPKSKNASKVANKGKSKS
UniProt Q5T6V5: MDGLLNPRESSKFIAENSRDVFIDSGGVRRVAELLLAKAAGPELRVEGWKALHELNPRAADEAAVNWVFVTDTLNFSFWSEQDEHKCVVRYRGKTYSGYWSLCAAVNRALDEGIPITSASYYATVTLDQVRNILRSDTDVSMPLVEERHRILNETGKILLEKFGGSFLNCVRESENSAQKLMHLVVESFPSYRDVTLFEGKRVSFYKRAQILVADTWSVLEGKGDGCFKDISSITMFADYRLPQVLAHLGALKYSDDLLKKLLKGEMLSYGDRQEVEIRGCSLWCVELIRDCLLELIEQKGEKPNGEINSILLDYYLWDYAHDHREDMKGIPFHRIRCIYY
UniProt P17655: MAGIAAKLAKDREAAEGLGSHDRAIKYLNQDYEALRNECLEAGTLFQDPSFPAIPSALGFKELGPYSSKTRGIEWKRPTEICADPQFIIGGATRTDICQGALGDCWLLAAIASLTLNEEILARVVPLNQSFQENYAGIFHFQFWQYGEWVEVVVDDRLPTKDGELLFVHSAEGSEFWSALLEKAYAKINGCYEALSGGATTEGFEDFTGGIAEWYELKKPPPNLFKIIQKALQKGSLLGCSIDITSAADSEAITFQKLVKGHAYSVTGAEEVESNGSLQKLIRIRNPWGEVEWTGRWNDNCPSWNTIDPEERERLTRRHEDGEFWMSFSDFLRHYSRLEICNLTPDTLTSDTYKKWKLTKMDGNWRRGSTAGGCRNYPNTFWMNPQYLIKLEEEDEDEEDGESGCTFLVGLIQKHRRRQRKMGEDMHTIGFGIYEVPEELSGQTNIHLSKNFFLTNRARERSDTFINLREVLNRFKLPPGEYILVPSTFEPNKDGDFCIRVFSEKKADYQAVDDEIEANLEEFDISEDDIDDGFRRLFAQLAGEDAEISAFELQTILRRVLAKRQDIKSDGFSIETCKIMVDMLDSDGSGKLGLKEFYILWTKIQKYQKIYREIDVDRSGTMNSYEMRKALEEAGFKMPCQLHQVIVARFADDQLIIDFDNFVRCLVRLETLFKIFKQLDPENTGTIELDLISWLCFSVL
UniProt Q8N1Q1: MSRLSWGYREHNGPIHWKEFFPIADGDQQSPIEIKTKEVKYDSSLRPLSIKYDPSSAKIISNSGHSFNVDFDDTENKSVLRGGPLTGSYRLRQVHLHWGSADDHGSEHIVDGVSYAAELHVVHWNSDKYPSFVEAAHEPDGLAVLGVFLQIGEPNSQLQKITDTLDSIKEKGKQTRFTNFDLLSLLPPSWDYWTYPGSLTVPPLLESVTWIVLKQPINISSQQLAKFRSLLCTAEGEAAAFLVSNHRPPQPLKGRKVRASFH
UniProt O43683: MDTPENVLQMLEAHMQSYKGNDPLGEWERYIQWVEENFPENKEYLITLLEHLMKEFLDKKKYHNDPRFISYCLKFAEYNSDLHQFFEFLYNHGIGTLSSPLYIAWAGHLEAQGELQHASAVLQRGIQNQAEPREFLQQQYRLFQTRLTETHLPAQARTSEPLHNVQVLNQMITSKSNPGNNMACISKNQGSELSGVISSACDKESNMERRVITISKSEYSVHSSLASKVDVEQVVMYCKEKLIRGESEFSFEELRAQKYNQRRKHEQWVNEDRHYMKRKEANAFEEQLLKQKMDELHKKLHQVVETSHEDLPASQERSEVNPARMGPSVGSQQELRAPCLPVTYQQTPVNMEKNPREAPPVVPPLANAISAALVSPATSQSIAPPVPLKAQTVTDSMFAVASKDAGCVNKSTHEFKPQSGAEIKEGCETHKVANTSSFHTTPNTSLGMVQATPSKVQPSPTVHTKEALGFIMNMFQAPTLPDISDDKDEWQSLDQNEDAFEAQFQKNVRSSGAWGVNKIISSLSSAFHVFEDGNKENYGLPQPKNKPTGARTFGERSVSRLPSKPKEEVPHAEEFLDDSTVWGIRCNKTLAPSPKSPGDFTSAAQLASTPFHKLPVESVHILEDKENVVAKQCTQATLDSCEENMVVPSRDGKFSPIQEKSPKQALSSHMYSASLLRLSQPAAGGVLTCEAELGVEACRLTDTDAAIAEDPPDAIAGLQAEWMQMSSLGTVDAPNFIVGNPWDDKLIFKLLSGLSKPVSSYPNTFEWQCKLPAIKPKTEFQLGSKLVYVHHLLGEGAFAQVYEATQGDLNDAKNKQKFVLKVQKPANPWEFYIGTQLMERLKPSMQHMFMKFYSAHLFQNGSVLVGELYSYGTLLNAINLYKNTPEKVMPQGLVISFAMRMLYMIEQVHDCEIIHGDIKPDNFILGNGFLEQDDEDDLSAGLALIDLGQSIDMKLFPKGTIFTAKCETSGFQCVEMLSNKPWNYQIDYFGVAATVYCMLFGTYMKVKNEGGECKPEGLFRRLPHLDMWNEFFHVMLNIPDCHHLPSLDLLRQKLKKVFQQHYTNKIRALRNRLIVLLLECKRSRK

Key:
Assay in all cases: log2 fold change, soluble protein after heating vs DMSO (PISA); higher = thermal stabilisation; K562 cells, 10 uM, 30 min; active = over 0.2 and 3.5 SD of the protein, either way, in both replicates (recomputed)
[1] = compound: Cc1ccc(NC(=O)c2ccc(CN3CC[C@H](N(C)C)C3)c(C(F)(F)F)c2)cc1Nc1nccc(-c2cncnc2)n1 [bafetinib]
How it was run: (§1)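 K562 cells (2×10^6 cells/mL) were treated with 10 μM compound for 30 min, and aliquots were heated for 3 min over 48°C-58°C. Pooled aliquots were extracted in PBS with 0.5% NP-40 at 4°C, and the supernatant after 21,000xg for 90 min was measured by TMTpro 16plex LC-MS/MS with channel sums equalised. Reported thermal stability, relative to control samples and from duplicates, is a log2 fold change.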

[2] = compound: Cc1cccc(CC(=O)N2CCc3c2ccc(-c2cn(C)c4ncnc(N)c24)c3F)n1
How it was run: as §1

[3] = compound: Cc1cn(-c2cc(NC(=O)c3ccc(C)c(Nc4nccc(-c5cccnc5)n4)c3)cc(C(F)(F)F)c2)cn1 [nilotinib]
How it was run: as §1

[4] = compound: Cc1nc(Nc2n[nH]c3c2CN(C(=O)N[C@H](CN(C)C)c2ccccc2)C3(C)C)c2sccc2n1
How it was run: as §1

[5] = compound: Cc1nc(Nc2ncc(C(=O)Nc3c(C)cccc3Cl)s2)cc(N2CCN(CCO)CC2)n1 [dasatinib]
How it was run: as §1

[6] = compound: Cc1ncc(-c2ccnc(Nc3ccc(S(C)(=O)=O)cc3)n2)n1C(C)C
How it was run: as §1

[7] = compound: Cn1cc(-c2ccc3c(c2)CCN3C(=O)Cc2cccc(C(F)(F)F)c2)c2c(N)ncnc21
How it was run: as §1

[8] = compound: Cn1cc(-c2ccc3nnc(C(F)(F)c4ccc5ncccc5c4)n3n2)cn1
How it was run: as §1

[9] = compound: Cn1cncc1[C@@](N)(c1ccc(Cl)cc1)c1ccc2c(c1)c(-c1cccc(Cl)c1)cc(=O)n2C [tipifarnib]
How it was run: as §1

[10] = compound: FC(F)(F)c1ccc(/C=C/c2nc(COc3ccc(CCCCn4ccnn4)cc3)co2)cc1 [mubritinib]
How it was run: as §1

[11] = compound: NC(=O)Nc1cc(-c2cccc(F)c2)sc1C(=O)N[C@H]1CCCNC1
How it was run: as §1

[12] = compound: NC(=O)c1cnc(N[C@@H]2CCCC[C@@H]2N)nc1Nc1cccc(-n2nccn2)c1
How it was run: as §1

[13] = compound: NC1(c2ccc(-c3nc4ccn5c(=O)[nH]nc5c4cc3-c3ccccc3)cc2)CCC1
How it was run: as §1

[14] = compound: NCC(=O)Nc1ccc(-n2nc(C(F)(F)F)cc2-c2ccc3c(ccc4ccccc43)c2)cc1
How it was run: as §1

[15] = compound: Nc1ccccc1NC(=O)c1ccc(CNC(=O)OCc2cccnc2)cc1 [entinostat]
How it was run: as §1

[16] = compound: O=C(CCCCCCC(=O)Nc1ccccc1)NO [vorinostat]
How it was run: as §1

[17] = compound: O=C(CCCCCCNC(=O)c1cnc(N(c2ccccc2)c2ccccc2Cl)nc1)NO [citarinostat]
How it was run: as §1

[18] = compound: O=C(O)c1ccc2c(c1)nc(Nc1cccc(Cl)c1)c1ccncc12 [silmitasertib]
How it was run: as §1

[19] = compound: O=C1NC(=O)C(c2cnc3ccccn23)=C1c1cn2c3c(cc(F)cc13)CN(C(=O)N1CCCCC1)CC2
How it was run: as §1

[20] = compound: c1cc(OCCN2CCCCC2)cc(-c2n[nH]c3ccc(-c4nnc[nH]4)cc23)c1
How it was run: as §1

C9orf40 (UniProt Q8IXQ3)
log2 fold change [1]: inactive: -0.144
log2 fold change [2]: inactive: 0.213
log2 fold change [3]: inactive: -0.01
log2 fold change [4]: inactive: 0.025
log2 fold change [5]: inactive: -0.055
log2 fold change [6]: inactive: -0.093
log2 fold change [7]: inactive: 0.086
log2 fold change [8]: inactive: 0.032
log2 fold change [9]: inactive: -0.087
log2 fold change [10]: inactive: 0.002
log2 fold change [11]: inactive: -0.117
log2 fold change [12]: inactive: 0.1
log2 fold change [13]: inactive: 0.014
log2 fold change [14]: inactive: 0.085
log2 fold change [15]: inactive: 0.017
log2 fold change [16]: inactive: 0.033
log2 fold change [17]: inactive: 0.023
log2 fold change [18]: inactive: 0.016
log2 fold change [19]: inactive: -0.008
log2 fold change [20]: inactive: -0.009

BTF3 (UniProt P20290)
log2 fold change [1]: inactive: -0.012
log2 fold change [2]: inactive: -0.058
log2 fold change [3]: inactive: -0.007
log2 fold change [4]: inactive: 0.014
log2 fold change [5]: inactive: 0.059
log2 fold change [6]: inactive: -0.042
log2 fold change [7]: inactive: 0.009
log2 fold change [8]: inactive: -0.02
log2 fold change [9]: inactive: -0.009
log2 fold change [10]: inactive: -0.003
log2 fold change [11]: inactive: 0.035
log2 fold change [12]: inactive: 0.096
log2 fold change [13]: inactive: 0.069
log2 fold change [14]: inactive: 0.065
log2 fold change [15]: inactive: -0.003
log2 fold change [16]: inactive: -0.039
log2 fold change [17]: inactive: -0.008
log2 fold change [18]: inactive: -0.057
log2 fold change [19]: inactive: -0.023
log2 fold change [20]: inactive: 0.018

C1D (UniProt Q13901)
log2 fold change [1]: inactive: -0.026
log2 fold change [2]: inactive: -0.013
log2 fold change [3]: inactive: 0.059
log2 fold change [4]: inactive: -0.074
log2 fold change [6]: inactive: -0.027
log2 fold change [8]: inactive: 0.018
log2 fold change [9]: inactive: 0.151
log2 fold change [10]: inactive: 0.132
log2 fold change [11]: inactive: 0.187
log2 fold change [12]: active: 0.322
log2 fold change [13]: inactive: 0
log2 fold change [14]: inactive: 0.033
log2 fold change [15]: inactive: -0.012
log2 fold change [16]: inactive: 0.116
log2 fold change [17]: inactive: 0.067
log2 fold change [18]: inactive: 0.072
log2 fold change [19]: inactive: 0.003
log2 fold change [20]: inactive: 0.008

C9orf64 (UniProt Q5T6V5)
log2 fold change [1]: inactive: 0.031
log2 fold change [2]: inactive: 0.218
log2 fold change [3]: inactive: -0.045
log2 fold change [4]: inactive: -0.094
log2 fold change [5]: inactive: -0.197
log2 fold change [6]: inactive: -0.04
log2 fold change [7]: inactive: 0.079
log2 fold change [8]: inactive: 0.085
log2 fold change [9]: inactive: -0.163
log2 fold change [10]: inactive: 0.282
log2 fold change [11]: inactive: 0
log2 fold change [12]: inactive: -0.155
log2 fold change [13]: inactive: -0.338
log2 fold change [14]: inactive: -0.02
log2 fold change [15]: inactive: 0.088
log2 fold change [16]: inactive: 0.167
log2 fold change [17]: inactive: 0.064
log2 fold change [18]: inactive: 0.037
log2 fold change [19]: inactive: 0.012
log2 fold change [20]: inactive: -0.106

CAPN2 (UniProt P17655)
log2 fold change [1]: inactive: -0.03
log2 fold change [2]: inactive: 0.002
log2 fold change [3]: inactive: 0.043
log2 fold change [4]: inactive: -0.024
log2 fold change [5]: inactive: -0.021
log2 fold change [6]: inactive: -0.045
log2 fold change [7]: inactive: 0.097
log2 fold change [8]: inactive: 0.02
log2 fold change [9]: inactive: 0.005
log2 fold change [10]: inactive: 0.037
log2 fold change [11]: inactive: -0.013
log2 fold change [12]: inactive: -0.011
log2 fold change [13]: inactive: -0.077
log2 fold change [14]: inactive: 0.027
log2 fold change [15]: inactive: -0.018
log2 fold change [16]: inactive: 0.002
log2 fold change [17]: inactive: -0.005
log2 fold change [18]: inactive: -0.02
log2 fold change [19]: inactive: -0.018
log2 fold change [20]: inactive: 0.036

CA13 (UniProt Q8N1Q1)
log2 fold change [1]: inactive: -0.05
log2 fold change [2]: inactive: -0.034
log2 fold change [3]: inactive: 0.037
log2 fold change [4]: inactive: 0.021
log2 fold change [5]: inactive: -0.112
log2 fold change [6]: inactive: -0.129
log2 fold change [7]: inactive: -0.08
log2 fold change [8]: inactive: 0.051
log2 fold change [10]: inactive: 0.124
log2 fold change [11]: inactive: 0.047
log2 fold change [12]: inactive: -0.092
log2 fold change [13]: inactive: -0.014
log2 fold change [14]: inactive: 0
log2 fold change [15]: inactive: 0.016
log2 fold change [16]: inactive: -0.066
log2 fold change [18]: inactive: 0.078
log2 fold change [19]: inactive: -0.052

BUB1 (UniProt O43683)
log2 fold change [1]: inactive: -0.013
log2 fold change [2]: inactive: -0.101
log2 fold change [3]: inactive: -0.206
log2 fold change [4]: inactive: 0.062
log2 fold change [5]: inactive: 0.019
log2 fold change [6]: inactive: -0.061
log2 fold change [7]: inactive: 0.006
log2 fold change [8]: inactive: 0.163
log2 fold change [9]: inactive: 0.027
log2 fold change [10]: inactive: 0.057
log2 fold change [11]: inactive: -0.09
log2 fold change [12]: inactive: -0.192
log2 fold change [13]: inactive: -0.142
log2 fold change [14]: inactive: -0.202
log2 fold change [15]: inactive: 0.002
log2 fold change [16]: inactive: -0.018
log2 fold change [17]: inactive: -0.069
log2 fold change [18]: inactive: 0.002
log2 fold change [19]: inactive: -0.044
log2 fold change [20]: inactive: -0.003
